Experimental findings from patent US20080038734 are described below.

Chains of the proteins cited; added tags and fusions are not shown. Lines headed by an entry give the natural chain unless they say otherwise; changes in a name come on top.
UniProt O93634: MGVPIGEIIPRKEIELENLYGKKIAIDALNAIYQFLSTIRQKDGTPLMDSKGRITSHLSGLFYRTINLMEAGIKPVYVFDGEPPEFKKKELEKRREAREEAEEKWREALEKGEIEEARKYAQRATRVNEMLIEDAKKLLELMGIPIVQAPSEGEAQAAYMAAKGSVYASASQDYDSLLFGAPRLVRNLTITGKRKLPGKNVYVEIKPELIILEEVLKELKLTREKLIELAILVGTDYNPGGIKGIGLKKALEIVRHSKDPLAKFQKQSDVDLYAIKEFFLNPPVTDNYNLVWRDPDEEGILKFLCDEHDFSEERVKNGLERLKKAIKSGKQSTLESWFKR

A negative result means that nothing was seen under these conditions. The exact form of at least one protein or probe is not confirmed.

The first data set addresses Pfu FEN nuclease (Pyrococcus furiosus) (UniProt O93634). Description: enzyme reaction in vitro. The conditions noted are these: 2'-OMe at probe positions +2 to +16; purified recombinant protein; label: BHQ on +1, FAM on 3' end of probe; folded or branched DNA.
For the sequence “ACCGGTGACATTTACCTGCTCAACCTGGCC / TGCAGGGCCAGGTTGAGCAGGTAAATGTCAGGATACCACTTCAGCTTTTTGCAG / CTGCAAAAAGCTGAAGTGGTAT [1Q3F 2'-OMe probe/target/F-2 upstream]”, the “activity on this sequence” value is “not active”.

“ACCGGTGACATTTACCTGCTCAACCTGGCC / TGCAGGGCCAGGTTGAGCAGGTAAATGTCAGGATACCACTTCAGCTTTTTGCAG / CTGCAAAAAGCTGAAGTGGTATC [1Q3F 2'-OMe probe/target/F-1 upstream]”: the “activity on this sequence” value is given as “not active”.

On to “ACCGGTGACATTTACCTGCTCAACCTGGCC / TGCAGGGCCAGGTTGAGCAGGTAAATGTCAGGATACCACTTCAGCTTTTTGCAG / CTGCAAAAAGCTGAAGTGGTATCC [1Q3F 2'-OMe probe/target/FWD upstream]”, for which the “activity on this sequence” value is “not active”.

For “ACCGGTGACATTTACCTGCTCAACCTGGCC / TGCAGGGCCAGGTTGAGCAGGTAAATGTCAGGATACCACTTCAGCTTTTTGCAG / CTGCAAAAAGCTGAAGTGGTATCCT [1Q3F 2'-OMe probe/target/F+1 upstream]”, the “activity on this sequence” value is on record as “not active”.

“ACCGGTGACATTTACCTGCTCAACCTGGCC / TGCAGGGCCAGGTTGAGCAGGTAAATGTCAGGATACCACTTCAGCTTTTTGCAG / CTGCAAAAAGCTGAAGTGGTATCCTG [1Q3F 2'-OMe probe/target/F+2 upstream]”: the “activity on this sequence” value was “not active”.

As for “ACCGGTGACATTTACCTGCTCAACCTGGCC / TGCAGGGCCAGGTTGAGCAGGTAAATGTCAGGATACCACTTCAGCTTTTTGCAG / CTGCAAAAAGCTGAAGTGGTATCCTGA [1Q3F 2'-OMe probe/target/F+3 upstream]”, the “activity on this sequence” value was “not active”.

As to “ACCGGTGACATTTACCTGCTCAACCTGGCC / TGCAGGGCCAGGTTGAGCAGGTAAATGTCAGGATACCACTTCAGCTTTTTGCAG / CTGCAAAAAGCTGAAGTGGTATCCTGAC [1Q3F 2'-OMe probe/target/F+4 upstream]”, the “activity on this sequence” value was “not active”.

Still in this data set, the particulars now being: 2'-OMe at probe positions +2 to +16; purified recombinant protein; label: BHQ on +1, FAM on 5' end of probe; folded or branched DNA.
On to “ACCGGTGACATTTACCTGCTCAACCTGGCC / TGCAGGGCCAGGTTGAGCAGGTAAATGTCAGGATACCACTTCAGCTTTTTGCAG / CTGCAAAAAGCTGAAGTGGTATA [1Q5F 2'-OMe probe/target/F-1Amm upstream]”, for which the “activity on this sequence” value is “active”.
